Results on three substances are retold here after publication PMC8880450.

The chains behind the UniProt entries cited, without tags or fusion partners. Where a name states a change or a piece, a line headed by the entry shows the natural chain unless it says otherwise.
UniProt P03466: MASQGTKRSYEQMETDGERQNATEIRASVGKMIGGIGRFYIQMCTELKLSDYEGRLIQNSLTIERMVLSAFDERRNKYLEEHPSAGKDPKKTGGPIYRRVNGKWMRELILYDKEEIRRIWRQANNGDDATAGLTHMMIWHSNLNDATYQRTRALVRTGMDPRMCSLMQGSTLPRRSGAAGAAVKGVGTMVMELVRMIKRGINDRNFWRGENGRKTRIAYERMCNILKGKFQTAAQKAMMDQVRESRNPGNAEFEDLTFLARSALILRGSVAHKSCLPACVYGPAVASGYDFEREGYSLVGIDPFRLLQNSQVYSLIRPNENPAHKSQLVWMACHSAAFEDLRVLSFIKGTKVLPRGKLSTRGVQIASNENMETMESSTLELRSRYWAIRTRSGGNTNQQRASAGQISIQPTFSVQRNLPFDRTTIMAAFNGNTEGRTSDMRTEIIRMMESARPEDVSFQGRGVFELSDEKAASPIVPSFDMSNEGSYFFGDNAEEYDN
UniProt P09651: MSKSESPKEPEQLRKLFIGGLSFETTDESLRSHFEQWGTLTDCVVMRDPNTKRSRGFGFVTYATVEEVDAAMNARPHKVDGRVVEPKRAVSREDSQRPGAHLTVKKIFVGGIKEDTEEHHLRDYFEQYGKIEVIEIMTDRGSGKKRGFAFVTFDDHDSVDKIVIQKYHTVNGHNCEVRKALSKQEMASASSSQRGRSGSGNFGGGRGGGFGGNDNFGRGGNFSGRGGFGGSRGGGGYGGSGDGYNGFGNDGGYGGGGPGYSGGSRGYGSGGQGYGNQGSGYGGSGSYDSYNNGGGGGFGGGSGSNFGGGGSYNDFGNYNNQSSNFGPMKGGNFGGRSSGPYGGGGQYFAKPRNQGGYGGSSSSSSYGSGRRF

What all share (experiment): co-IP
Assay [1] deals with Nucleoprotein (NP) of influenza A virus A/Puerto Rico/8/34 (PR8) H1N1, myc/His-tagged (Influenza A virus A/Puerto Rico/8/34 (H1N1)) (UniProt P03466).
For assay [2], the target named is Nucleoprotein (NP) of influenza A virus A/Puerto Rico/8/34 (PR8) H1N1, made in infected cells (Influenza A virus A/Puerto Rico/8/34 (H1N1)) (UniProt P03466).
Assay [3] addresses Heterogeneous ribonucleoprotein A1 (hnRNPA1), endogenous in HEK cells (human (endogenous in HEK)) (UniProt P09651).

Results are given in words; binding and its absence hold for the method and conditions named. Binding seen in cells or lysates may run through a third protein. Some entries that bind do so weakly or less than the wild type.

“Heterogeneous ribonucleoprotein A1 (hnRNPA1), endogenous in HEK cells (from UniProt P09651-1 1-372)”: in assay [1], the binding entry is “binds”.

“Heterogeneous ribonucleoprotein A1 (hnRNPA1), endogenous in A549 cells (from UniProt P09651-1 1-372)”: in assay [2], the binding entry is given as “binds”. Turning to “Nucleoprotein (NP) of influenza A virus A/Puerto Rico/8/34 (PR8) H1N1, myc/His-tagged (from UniProt P03466 1-498)”, in assay [3], the binding result was “binds”.
